Source: ChEMBL document CHEMBL3988442, “University of Dundee, Small-Polar-MMV Screening Library” (2021).

By UniProt entry, the sequences of proteins in these tests, tags left out. Residues count along the entry.
UniProt P9WPC5, whole entry: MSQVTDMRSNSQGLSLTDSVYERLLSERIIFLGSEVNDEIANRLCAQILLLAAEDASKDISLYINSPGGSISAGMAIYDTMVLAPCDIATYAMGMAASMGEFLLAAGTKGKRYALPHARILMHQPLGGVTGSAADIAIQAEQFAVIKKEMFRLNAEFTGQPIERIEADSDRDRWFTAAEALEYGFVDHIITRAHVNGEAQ
UniProt P9WPC3, whole entry partner: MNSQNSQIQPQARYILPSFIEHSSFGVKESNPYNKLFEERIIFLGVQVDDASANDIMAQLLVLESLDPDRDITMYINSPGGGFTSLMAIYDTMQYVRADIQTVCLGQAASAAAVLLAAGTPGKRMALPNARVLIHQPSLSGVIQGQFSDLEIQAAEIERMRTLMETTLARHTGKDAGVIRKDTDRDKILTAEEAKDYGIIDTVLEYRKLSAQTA
UniProt P9WNZ1, whole entry: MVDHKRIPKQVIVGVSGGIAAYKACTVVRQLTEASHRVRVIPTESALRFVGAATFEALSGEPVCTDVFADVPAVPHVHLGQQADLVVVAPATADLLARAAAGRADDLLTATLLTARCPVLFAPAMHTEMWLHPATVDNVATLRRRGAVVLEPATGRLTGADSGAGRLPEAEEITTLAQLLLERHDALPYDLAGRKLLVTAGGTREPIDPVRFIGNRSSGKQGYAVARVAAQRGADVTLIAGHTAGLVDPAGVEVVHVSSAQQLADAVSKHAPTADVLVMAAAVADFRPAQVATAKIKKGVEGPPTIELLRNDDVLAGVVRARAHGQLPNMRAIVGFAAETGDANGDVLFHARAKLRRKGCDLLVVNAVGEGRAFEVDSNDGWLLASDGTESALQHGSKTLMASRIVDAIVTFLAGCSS
UniProt Q8IDJ8, 1-583: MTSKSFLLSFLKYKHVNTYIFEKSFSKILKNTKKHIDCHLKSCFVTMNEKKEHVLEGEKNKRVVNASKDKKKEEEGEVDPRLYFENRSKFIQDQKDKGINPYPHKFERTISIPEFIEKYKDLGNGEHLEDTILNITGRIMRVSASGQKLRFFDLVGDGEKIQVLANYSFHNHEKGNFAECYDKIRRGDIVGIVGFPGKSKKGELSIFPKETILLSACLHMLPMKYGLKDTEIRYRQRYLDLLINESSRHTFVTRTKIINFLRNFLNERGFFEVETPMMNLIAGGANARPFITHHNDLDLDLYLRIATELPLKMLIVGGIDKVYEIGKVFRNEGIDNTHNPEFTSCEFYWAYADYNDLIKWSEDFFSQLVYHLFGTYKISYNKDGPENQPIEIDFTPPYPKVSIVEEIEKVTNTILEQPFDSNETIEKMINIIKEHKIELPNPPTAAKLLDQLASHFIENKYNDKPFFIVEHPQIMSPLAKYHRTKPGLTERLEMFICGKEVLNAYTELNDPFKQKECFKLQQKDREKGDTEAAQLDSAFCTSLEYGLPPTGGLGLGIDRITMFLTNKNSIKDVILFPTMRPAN

ClpP1P2: 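ClpP1P2, Mycobacterium tuberculosis (UniProt P9WPC5 and UniProt P9WPC3). Protease assay of ClpP1P2, read by the AMC dye that it sets free. Compounds at 50 µM. Direction is inferred from only a few compounds that gave an IC50; most scored high, so higher reads as stronger inhibition. Most other retested compounds had strongly negative values. About 69,000 compounds were tested under these conditions; 0.015% (about 10) showed 50% or more at least once.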
CoaBC: 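Coenzyme A biosynthesis protein CoaBC, Mycobacterium tuberculosis (UniProt P9WNZ1). Enzyme assay of CoaBC with a phosphate dye (Biomol Green) read at 650 nm. Tested at 30 µM. Direction is inferred from only a few compounds that gave an IC50; most scored high, so higher reads as stronger inhibition. Most strong results did not repeat in a second test. Of about 67,000 compounds tested this way, about 40 (0.06%) reached 50% or more in at least one test.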
PfKRS1: 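Lysine-tRNA ligase, Plasmodium falciparum 3D7 (UniProt Q8IDJ8). Enzyme assay of the cytosolic lysyl-tRNA synthetase in 384-well plates, read by luminescence. Compounds at 30 µM. Direction is inferred from only a few compounds that gave an IC50; most scored high, so higher reads as stronger inhibition. Of about 69,000 compounds tested this way, about 49 (0.071%) reached 50% or more in at least one test.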

The filed quantity is “Percent Effect” (%).
The controls that fix the scale are not given in the record; negative values are as filed.
This is an unselected part of the compounds tested.
A dash means the value is not listed here; it may have been measured.

structure | ClpP1P2 | CoaBC | PfKRS1
Cc1noc(C)c1CN1CCc2ncnc(-c3ccc(F)cc3)c2CC1 | -4.811 | 5.926 | 1.494
CCc1nnc2n1CC(CNCc1nnc(C(C)(C)C)o1)CC2 (centres undefined) | -4.184 | 5.837 | -0.5039
CC(C)c1nccn1C(C)C(=O)NC1CCOCC1 (centres undefined) | 7.398 | -3.719 | 2.025
NCC(=O)N1CCCC1c1n[nH]cc1-c1ccccc1F (centres undefined) | -14.12 | 3.263 | 0.4424
COCC(=O)N1CCN(C(=O)c2cccs2)[C@@H](C(=O)OC)C1 | 0.02296 | 5.643 | 2.801
CC(Nc1nc(-c2ccccc2)nc2c1CCNCC2)c1cccnc1 (centres undefined) | -19.59 | 2.751 | 6.355
Cn1cc(Cl)cc1C(=O)N1CCCN(Cc2nccn2C)CC1 | -10.33 | 7.417 | 0.8672
CCS(=O)(=O)Nc1ccn(Cc2cccc(Cl)c2)n1 | -14.04 | -8.182 | -4.99
CCC(C)(C)n1nnnc1C(c1cccs1)N1CCc2ccccc2C1 (centres undefined) | -38.58 | -2.74 | 0.06079
OC1(CN2CCC(Oc3cccnc3)CC2)CNCCOC1 (centres undefined) | 4.679 | -2.679 | 6.895
Cc1nsc(NC(=O)NC2CCOCC2)n1 | 7.036 | 3.686 | -3.107
Cc1nn(C)cc1-c1ccnc(N(C)Cc2noc(C(C)C)n2)n1 | -7.88 | 14.65 | 2.708
Cn1ccc(C(=O)N2CCC3(CC2)CC(Nc2cnccn2)CO3)n1 (centres undefined) | -5.606 | 0.7317 | 4.688
CNC(=O)C1(Cc2cc(C(C)C)no2)CCN(Cc2ccccn2)C1 (centres undefined) | -16.54 | 4.932 | -0.4104
CCOC1CCCN(C(=O)NCCc2ccn(-c3ccccc3)n2)C1 (centres undefined) | 19.97 | 0.5128 | 4.113
CC(C)Sc1nnnn1C1CCCC1 | 4.974 | 1.599 | -0.1715
COCCN1CCC(CN(CC2CCCO2)C(=O)CCC(F)(F)F)CC1 (centres undefined) | -5.665 | 2.046 | 4.524
Cc1ncsc1C(=O)OCCN1CCCCCC1=O | -14.39 | 1.631 | -1.475
O=C1C(n2nnc(-c3ccsc3)n2)CCN1CC(F)(F)F (centres undefined) | -6.871 | 2.915 | 4.299
CC(O)CN1CCC(CN(C)Cc2ccc(C#N)cc2F)CC1 (centres undefined) | 4.385 | - | 3.299
Cc1ccc(CC(=O)N2CCN(CC(O)c3ccccc3)CC2)cn1 (centres undefined) | 2.123 | 5.319 | 3.238
Cc1nn(C)c(Cl)c1C1CCCN1c1ncnc2[nH]ccc12 (centres undefined) | 1.82 | 13.92 | -4.223
COCCN1CCCC12CCN(C(=O)CC1CCCC1)CC2 | 2.559 | 2.66 | 3.158
COCCn1cc(NC(=O)NC(C)CCc2ccccc2)ccc1=O (centres undefined) | 2.54 | -0.4878 | 64.65
CCOCC1CN(c2ccc(C)nn2)Cc2nn(CC)cc21 (centres undefined) | -1.319 | 10 | 1.07
Cc1noc2ncc(C(=O)N3CCCC(n4cccn4)C3)cc12 (centres undefined) | -28.08 | 6.263 | 6.287
COc1cccc(N2CCN(Cc3nccn3C(C)C)CC2=O)c1 | -1.631 | 1.083 | 5.175
Nc1nnc(CCNc2ncnc3c2CCN(C(=O)C2CC2)C3)s1 | -1.362 | 5.61 | -0.2323
CN(C)Cc1nc2c(o1)CN(S(=O)(=O)c1cccs1)C2 | 6.451 | 3.342 | 3.908
CCNC(=O)Nc1ncc(-c2cccnc2)s1 | -15.98 | -3.558 | 0.8154
O=c1ncn(-c2cccc(F)c2)c2ncccc12 | 2.671 | -30.65 | -0.7317
CCOC(C)c1nc(CN2CCC(CNC(C)=O)CC2)cs1 (centres undefined) | -6.222 | -7.889 | -3.885
CCOc1ccc(CC(=O)N2CCCC(n3nc(C)nc3C)C2)cc1 (centres undefined) | -16.47 | 4.258 | -0.5322
Cc1cc(C(=O)N(C)Cc2cccs2)nc(N2CCCC2)n1 | -1.159 | -0.2309 | 1.713
COCCN1C(=O)[C@H]2CC[C@@H]1CN(C(=O)Cc1ccc(O)c(Cl)c1)C2 | -3.322 | -1.951 | 3.583
CN(Cc1ccc2c(c1)OCO2)C(=O)c1ccc(=O)n(C)c1 | 10.42 | 5.785 | -1.482
Cn1ccc(CN2CC(Cc3nccc4cc[nH]c34)C2)n1 | -11.9 | 10.43 | 0.8583
CNc1cc(C)nc(-c2cc(NC3CCNCC3)nc3[nH]ccc23)n1 | -39.84 | -8.099 | 2.745
Cc1nc(N2CCC3(CCCN(CCO)C3=O)C2)c2sccc2n1 (centres undefined) | -5.001 | - | 1.764
Cc1cc(C2CCCN(Cc3noc(Cc4ccccc4)n3)C2)n[nH]1 (centres undefined) | 2.353 | 12.25 | 0.5014
CCN1C(=O)CC[C@]12CC[C@@H](NC(=O)c1ccncc1F)CC2 | -1.678 | -5.019 | 2.805
COc1ccc(-c2ccccc2CCN)c(OC)c1OC | -2.148 | 0.9901 | 2.4
CC(=O)N1CC(C)CN(C(=O)c2cnccn2)c2ccccc21 (centres undefined) | 0.4175 | 6.734 | 2.112
O=C(NCc1ccco1)N1CCOC(c2ccccc2Cl)C1 (centres undefined) | 3.336 | 0.6369 | 5.457

The last 4 entries again:

Result for CCN1C(=O)CC[C@]12CC[C@@H](NC(=O)c1ccncc1F)CC2 was ClpP1P2: -1.678%; CoaBC: -5.019%; PfKRS1: 2.805%.
Result for COc1ccc(-c2ccccc2CCN)c(OC)c1OC was ClpP1P2: -2.148%; CoaBC: 0.9901%; PfKRS1: 2.4%.
Result for CC(=O)N1CC(C)CN(C(=O)c2cnccn2)c2ccccc21 (centres undefined) was ClpP1P2: 0.4175%; CoaBC: 6.734%; PfKRS1: 2.112%.
Result for O=C(NCc1ccco1)N1CCOC(c2ccccc2Cl)C1 (centres undefined) was ClpP1P2: 3.336%; CoaBC: 0.6369%; PfKRS1: 5.457%.